# From paper PMC6770525
# Results are given in words; binding and its absence hold for the method and conditions named. In cells and extracts the contact can be indirect. Some entries that bind do so weakly or less than the wild type.
# T1: caveolin-1 (CAV1) (UniProt P33724)
# T1 sequence: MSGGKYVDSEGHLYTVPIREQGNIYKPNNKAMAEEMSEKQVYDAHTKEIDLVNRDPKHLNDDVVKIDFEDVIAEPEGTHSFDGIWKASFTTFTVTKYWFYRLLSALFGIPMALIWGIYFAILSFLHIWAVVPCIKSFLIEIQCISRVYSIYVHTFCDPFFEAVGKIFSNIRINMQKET
# B1: non-receptor protein tyrosine phosphatase 1B (PTP1B) (enzyme, UniProt P35821 1-432)
# chain: MEMEKEFEEIDKAGNWAAIYQDIRHEASDFPCKVAKLPKNKNRNRYRDVSPFDHSRIKLHQEDNDYINASLIKMEEAQRSYILTQGPLPNTCGHFWEMVWEQKSRGVVMLNRIMEKGSLKCAQYWPQQEEKEMVFDDTGLKLTLISEDVKSYYTVRQLELENLTTKETREILHFHYTTWPDFGVPESPASFLNFLFKVRESGSLSLEHGPIVVHCSAGIGRSGTFCLADTCLLLMDKRKDPSSVDIKKVLLEMRRFRMGLIQTADQLRFSYLAVIEGAKFIMGDSSVQDQWKELSREDLDLPPEHVPPPPRPPKRTLEPHNGKCKELFSSHQWVSEETCGDEDSLAREEGRAQSSAMHSVSSMSPDTEVRRRMVGGGLQSAQASVPTEEELSSTEEEHKAHWPSHWKPFLVNVCMATLLATGAYLCYRVCFH
# Target: T1, caveolin-1 (CAV1)
# Test: co-IP; immunoprecipitates from B16F10(cav-1) cell lysates (20 mM Tris pH 7.4, 150 mM NaCl, 1% NP40, protease and phosphatase inhibitors), protein A/G agarose, 4 °C, western blot; cells with or without CGP42112 (1 µM, 30 min)
binder,measurement,value
B1,binding,binds
